Data taken from paper PMC10076020.
These are yes or no findings as the source states them, for the method shown. Binding seen in cells or lysates may run through a third protein. Some binding calls cover weakened binding; strength is not graded here.

Target: T1, interferon regulatory factor 9 (human (endogenous in SK-N-SH)), Q00978
T1 chain: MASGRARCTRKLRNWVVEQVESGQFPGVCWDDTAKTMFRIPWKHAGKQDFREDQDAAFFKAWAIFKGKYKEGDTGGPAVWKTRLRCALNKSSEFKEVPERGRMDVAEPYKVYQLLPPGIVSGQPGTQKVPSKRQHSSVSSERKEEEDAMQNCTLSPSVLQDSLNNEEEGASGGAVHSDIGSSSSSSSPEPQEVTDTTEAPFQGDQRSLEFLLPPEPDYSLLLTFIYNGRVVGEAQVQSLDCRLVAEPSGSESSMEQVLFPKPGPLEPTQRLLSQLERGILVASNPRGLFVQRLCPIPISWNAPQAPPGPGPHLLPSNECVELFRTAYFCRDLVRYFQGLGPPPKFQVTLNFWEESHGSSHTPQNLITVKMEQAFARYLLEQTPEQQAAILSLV
Assay: co-IP; SK-N-SH cells; anti-IRF9, anti-STAT1 and anti-STAT2 used for co-IP, precipitates detected by immunoblotting, IgG as negative control; control cells and cells with PTBP2 knockdown or overexpression, STAT1 or STAT2 siRNA
Details: remark: other sources report otherwise

binding: binds
B1: signal transducers and activators of transcription 1, P42224 1-750 (protein)
chain: MSQWYELQQLDSKFLEQVHQLYDDSFPMEIRQYLAQWLEKQDWEHAANDVSFATIRFHDLLSQLDDQYSRFSLENNFLLQHNIRKSKRNLQDNFQEDPIQMSMIIYSCLKEERKILENAQRFNQAQSGNIQSTVMLDKQKELDSKVRNVKDKVMCIEHEIKSLEDLQDEYDFKCKTLQNREHETNGVAKSDQKQEQLLLKKMYLMLDNKRKEVVHKIIELLNVTELTQNALINDELVEWKRRQQSACIGGPPNACLDQLQNWFTIVAESLQQVRQQLKKLEELEQKYTYEHDPITKNKQVLWDRTFSLFQQLIQSSFVVERQPCMPTHPQRPLVLKTGVQFTVKLRLLVKLQELNYNLKVKVLFDKDVNERNTVKGFRKFNILGTHTKVMNMEESTNGSLAAEFRHLQLKEQKNAGTRTNEGPLIVTEELHSLSFETQLCQPGLVIDLETTSLPVVVISNVSQLPSGWASILWYNMLVAEPRNLSFFLTPPCARWAQLSEVLSWQFSSVTKRGLNVDQLNMLGEKLLGPNASPDGLIPWTRFCKENINDKNFPFWLWIESILELIKKHLLPLWNDGCIMGFISKERERALLKDQQPGTFLLRFSESSREGAITFTWVERSQNGGEPDFHAVEPYTKKELSAVTFPDIIRNYKVMAAENIPENPLKYLYPNIDKDHAFGKYYSRPKEAPEPMELDGPKGTGYIKTELISVSEVHPSRLQTTDNLLPMSPEEFDEVSRIVGSVEFDSMMNTV
